Measured values taken from publication PMC7412702.
These are yes or no findings as the source states them, for the method shown. In cells and extracts the contact can be indirect. Some entries that bind do so weakly or less than the wild type. Tags and fused reporters may be left off the sequences shown.

Protein sequences, listed by entry. Tags and fused reporters are not part of them. Residues count along the entry.
UniProt Q05996, residues 39-640: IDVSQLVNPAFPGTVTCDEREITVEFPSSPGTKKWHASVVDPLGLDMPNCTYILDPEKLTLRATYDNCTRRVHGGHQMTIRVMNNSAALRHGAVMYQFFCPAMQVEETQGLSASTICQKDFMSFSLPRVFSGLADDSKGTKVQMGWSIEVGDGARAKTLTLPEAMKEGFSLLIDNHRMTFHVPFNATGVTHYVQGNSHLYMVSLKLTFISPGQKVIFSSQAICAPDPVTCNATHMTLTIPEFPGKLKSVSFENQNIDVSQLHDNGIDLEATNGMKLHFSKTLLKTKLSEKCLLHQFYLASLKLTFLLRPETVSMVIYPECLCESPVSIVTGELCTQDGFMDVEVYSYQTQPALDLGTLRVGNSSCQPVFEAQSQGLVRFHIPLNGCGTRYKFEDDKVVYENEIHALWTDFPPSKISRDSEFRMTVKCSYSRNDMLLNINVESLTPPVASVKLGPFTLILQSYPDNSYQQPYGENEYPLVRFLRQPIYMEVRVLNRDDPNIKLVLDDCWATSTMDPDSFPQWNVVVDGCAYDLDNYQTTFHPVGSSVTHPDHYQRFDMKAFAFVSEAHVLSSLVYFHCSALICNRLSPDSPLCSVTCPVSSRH

What was measured:
[1] = molecular target: T1, MYC-tagged human wild-type ZP3 (human) (UniProt P21754); assay: co-IP; HeLa cells co-transfected with MYC-ZP3 (WT, or WT with A134T), HA-ZP1 or FLAG-ZP2; lysate, Protein A/G magnetic beads overnight at 4°C, Western blot; the legend says anti-HA antibody, the methods also name an anti-MYC antibody
T1 sequence: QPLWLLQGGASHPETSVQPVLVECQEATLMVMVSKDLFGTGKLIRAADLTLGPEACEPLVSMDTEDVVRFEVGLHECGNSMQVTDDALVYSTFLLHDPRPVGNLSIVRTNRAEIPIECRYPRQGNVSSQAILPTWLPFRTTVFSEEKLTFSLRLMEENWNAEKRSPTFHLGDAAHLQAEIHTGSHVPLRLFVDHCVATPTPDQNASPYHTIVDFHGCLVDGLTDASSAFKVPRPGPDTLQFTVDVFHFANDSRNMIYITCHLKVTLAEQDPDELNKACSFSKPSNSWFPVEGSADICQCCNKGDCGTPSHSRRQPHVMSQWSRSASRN

[2] = molecular target: T2, HA-tagged human mutant ZP1 (p.Arg109His) (human) (UniProt P60852); assay: co-IP; HeLa cells co-transfected with HA-ZP1 (WT, or WT with R109H), FLAG-ZP2 or MYC-ZP3; lysate, anti-HA antibody on Protein A/G magnetic beads overnight at 4°C, six washes with lysis buffer, Western blot
T2 sequence: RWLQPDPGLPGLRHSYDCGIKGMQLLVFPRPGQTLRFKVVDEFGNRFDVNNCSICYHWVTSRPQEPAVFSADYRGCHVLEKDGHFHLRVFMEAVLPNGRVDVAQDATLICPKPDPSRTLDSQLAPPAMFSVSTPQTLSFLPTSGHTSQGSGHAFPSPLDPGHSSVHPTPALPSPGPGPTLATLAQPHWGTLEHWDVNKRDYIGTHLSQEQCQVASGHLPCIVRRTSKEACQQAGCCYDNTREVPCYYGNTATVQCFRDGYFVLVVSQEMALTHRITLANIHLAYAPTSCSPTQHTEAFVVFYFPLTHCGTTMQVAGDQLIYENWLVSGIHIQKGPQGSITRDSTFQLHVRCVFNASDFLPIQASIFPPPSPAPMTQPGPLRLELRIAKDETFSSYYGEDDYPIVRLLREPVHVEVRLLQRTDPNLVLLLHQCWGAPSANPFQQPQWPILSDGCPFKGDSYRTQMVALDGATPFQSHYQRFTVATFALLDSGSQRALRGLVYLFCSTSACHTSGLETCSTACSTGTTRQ

binding [1]: binds | binding [2]: binds
Substance: FLAG-tagged human ZP2 (from UniProt Q05996-1 39-640)
